The name of at least one read-out is uncertain.
System: mouse
Assay: mouse acute toxicity test of rolipram
Assay type: in vivo
Text: The results of mouse acute toxicity test of rolipram are as follows.

## COc1ccc(C2CNC(=O)C2)cc1OC1CCCC1 (single isomer, unassigned; (-)) [(-) Rolipram]
i.p.
  ED50 Value (acute toxicity): 2300 mg/kg
p.o.
  ED50 Value (acute toxicity): 4000 mg/kg

Reference: patent US5059612A, “Anti-dementia drug” (priority 1989, dated 1991)
